{"sequences": {"note": "Sequences of proteins named here, by UniProt entry; tags and fusion partners are left off. Residues count along the entry.", "UniProt P09038, residues 143-288": "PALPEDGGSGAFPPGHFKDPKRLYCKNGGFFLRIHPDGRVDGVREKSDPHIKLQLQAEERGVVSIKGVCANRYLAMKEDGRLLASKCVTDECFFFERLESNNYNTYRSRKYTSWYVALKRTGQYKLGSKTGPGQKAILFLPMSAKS"}, "source": "paper PMC8534003", "about": "“The Chemokine-Based Peptide, CXCL9(74-103), Inhibits Angiogenesis by Blocking Heparan Sulfate Proteoglycan-Mediated Signaling of Multiple Endothelial Growth Factors” (Cancers, 2021)", "binders": {"B1": {"name": "biotinylated CXCL9(74-103) (peptide)", "peptide": "KKKQKNGKKHQKKKVLKVRKSQRSRQKKTT", "modifications": "biotin at the NH2-terminus"}}, "molecular_target": "human recombinant FGF-2 (human) (UniProt P09038)", "assay": "ELISA; ELISA-like direct binding assay: 96-well plates coated with 50 ng/mL growth factor in PBS at 4 °C overnight; blocked with 0.1% casein, 0.05% Tween 20 in PBS; biotinylated CXCL9(74-103) 1-1000 ng/mL, 37 °C, 1 h; detected with streptavidin-HRP; both purified", "note": "No constants are given. Whether binding was seen depends on the method and setting. Some binding calls cover weakened binding; strength is not graded here.", "data": [{"binder": "B1", "values": [{"measurement": "binding", "result": "binds"}]}]}
